These are yes or no findings as the source states them, for the method shown. Binding can be weak; no strength is given. Ends that are not written are not given here.
The binders below were run against HLA-B*07:02 (human) (assay: UV-ligand exchange, b2m ELISA; grade of exchange yield).

binding, binds:
APVIFSHSA [… (SEQ ID No 306)]
LPYGPGSEAAAF [… (SEQ ID No 307)]
FPQSQYPQY [… (SEQ ID No 309)]
RPLFYVVSL [… (SEQ ID No 311)]
LPYFREFSM [… (SEQ ID No 312)]
KVKSDRSVF [… (SEQ ID No 313)]
VPDQPHPEI [… (SEQ ID No 314)]
SPRENFPDTL [… (SEQ ID No 315)]
EPKTATVL [EPKTATVL (SEQ ID No 316)]
FPFQPGSV [FPFQPGSV (SEQ ID No 317)]
FPNRLNLEA [… (SEQ ID No 318)]
SPAEPSVYATL [… (SEQ ID No 319)]
FPMSPVTSV [… (SEQ ID No 320)]
SPMDTFLLI [… (SEQ ID No 321)]
SPDPSKHLL [… (SEQ ID No 322)]
RPMPNLRSV [… (SEQ ID No 323)]
GPRNAQRVL [… (SEQ ID No 325)]
VPSEIDAAF [… (SEQ ID No 326)]
SPLPVTSLI [… (SEQ ID No 327)]
EPVTSSLPNF [… (SEQ ID No 328)]
FPAMTESGGMIL [… (SEQ ID No 329)]
FPFVTGSTEM [… (SEQ ID No 330)]
FPHPEMTTSM [… (SEQ ID No 331)]
FPHSEMTTL [… (SEQ ID No 332)]
FPHSEMTTVM [… (SEQ ID No 333)]
FPYSEVTTL [… (SEQ ID No 334)]
HPDPVGPGL [… (SEQ ID No 335)]
HPKTESATPAAY [… (SEQ ID No 336)]
HPVETSSAL [… (SEQ ID No 337)]
HVTKTQATF [… (SEQ ID No 338)]
LPAGTTGSLVF [… (SEQ ID No 339)]
LPEISTRTM [… (SEQ ID No 340)]
LPLDTSTTL [… (SEQ ID No 341)]
LPLGTSMTF [… (SEQ ID No 342)]
LPSVSGVKTTF [… (SEQ ID No 343)]
LPTQTTSSL [… (SEQ ID No 344)]
LPTSESLVSF [… (SEQ ID No 345)]
LPWDTSTTLF [… (SEQ ID No 346)]
MPLTTGSQGM [… (SEQ ID No 347)]
MPNSAIPFSM [… (SEQ ID No 348)]
MPSLSEAMTSF [… (SEQ ID No 349)]
NPSSTTTEF [… (SEQ ID No 350)]
NVLTSTPAF [… (SEQ ID No 351)]
SPAETSTNM [… (SEQ ID No 352)]
SPAMTTPSL [… (SEQ ID No 353)]
SPLPVTSLL [… (SEQ ID No 354)]
SPLVTSHIM [… (SEQ ID No 355)]
SPNEFYFTV [… (SEQ ID No 356)]
SPSPVPTTL [… (SEQ ID No 357)]
SPSPVTSTL [… (SEQ ID No 358)]
SPSTIKLTM [… (SEQ ID No 359)]
SPSVSSNTY [… (SEQ ID No 360)]
SPTHVTQSL [… (SEQ ID No 361)]
SPVPVTSLF [… (SEQ ID No 362)]
TAKTPDATF [… (SEQ ID No 363)]

From US20230312680A1
